In US20210244735A1, “COMPOSITIONS AND METHODS FOR TREATING MYELOFIBROSIS” (Impact Biomedicines, Inc., priority 2010, published 2021):
Counter-ions that a name gives are not always drawn. At least one read-out could not be matched to a standard name with certainty.

Test: Phase 1 study: plasma pharmacokinetics, non-compartmental analysis
Format: in vivo, human
Conditions: 360 mg/day, Cycle 1 Day 28
Description: Pharmacokinetics: The concentration—time curves of TG101348 in plasma were evaluated by a non-compartmental analysis (with the use of WinNonlin® software, version 5.2).

For `Cc1cnc(Nc2ccc(OCCN3CCCC3)cc2)nc1Nc1cccc(S(=O)(=O)NC(C)(C)C)c1` [TG101348, N-tert-butyl-3-[(5-methyl-2-{[4-(2-pyrrolidin-1-ylethoxy)phenyl]amino}pyrimidin-4-yl)amino]benzenesulfonamide dihydrochloride monohydrate], the “Cmax relative to IC90” value was “above 3×IC90”.
